System: DH5a strain of E. coli
Test: Mass spectrometric (MALDI-TOF) measurement of hydrolytic breakdown of substrate in bacterial suspension, non-resistant strain
Assay type: cell-based
Conditions: DH5a strain of E. coli (no resistance); 10 mg/ml ampicillin solution; incubated three hours at 37° Celsius; FIG. 1 top

Row | Compound | breakdown of substrate (hydrolysis of β-lactam ring) seen in mass spectrum
1 | CC1(C)S[C@@H]2[C@H](NC(=O)[C@H](N)c3ccccc3)C(=O)N2[C@H]1C(=O)[O-].[Na+] [sodium salt of ampicillin] | no breakdown
2 | CC1(C)S[C@@H]2[C@H](NC(=O)[C@H](N)c3ccccc3)C(=O)N2[C@H]1C(=O)O [ampicillin] | no breakdown
